From article PMC12244503
These are yes or no findings as the source states them, for the method shown. In cells and extracts the contact can be indirect. Some binding calls cover weakened binding; strength is not graded here.

Sequences of proteins named here, by UniProt entry; tags and fusion partners are left off. A change or cut given only in a name is not applied to a line headed by its entry.
UniProt P02745: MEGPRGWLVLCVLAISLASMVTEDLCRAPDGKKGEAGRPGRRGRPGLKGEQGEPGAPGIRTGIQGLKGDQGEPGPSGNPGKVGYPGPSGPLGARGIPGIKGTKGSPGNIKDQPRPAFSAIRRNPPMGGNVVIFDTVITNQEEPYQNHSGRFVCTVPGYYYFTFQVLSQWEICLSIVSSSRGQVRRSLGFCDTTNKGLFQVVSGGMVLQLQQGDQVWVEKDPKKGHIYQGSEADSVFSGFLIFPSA
UniProt P02746: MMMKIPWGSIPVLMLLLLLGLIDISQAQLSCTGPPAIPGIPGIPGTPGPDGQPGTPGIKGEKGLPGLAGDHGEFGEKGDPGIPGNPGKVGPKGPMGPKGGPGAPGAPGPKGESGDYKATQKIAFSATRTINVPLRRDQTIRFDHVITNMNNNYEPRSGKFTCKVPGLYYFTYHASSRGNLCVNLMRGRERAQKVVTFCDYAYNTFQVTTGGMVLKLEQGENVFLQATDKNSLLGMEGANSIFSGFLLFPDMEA
UniProt P02747: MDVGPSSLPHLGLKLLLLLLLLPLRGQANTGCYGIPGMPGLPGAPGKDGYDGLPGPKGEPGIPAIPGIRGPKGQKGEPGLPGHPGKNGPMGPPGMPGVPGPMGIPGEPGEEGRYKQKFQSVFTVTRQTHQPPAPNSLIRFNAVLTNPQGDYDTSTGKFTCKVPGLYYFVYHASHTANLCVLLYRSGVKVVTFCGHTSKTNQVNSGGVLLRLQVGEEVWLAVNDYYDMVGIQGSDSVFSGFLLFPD
UniProt Q13304: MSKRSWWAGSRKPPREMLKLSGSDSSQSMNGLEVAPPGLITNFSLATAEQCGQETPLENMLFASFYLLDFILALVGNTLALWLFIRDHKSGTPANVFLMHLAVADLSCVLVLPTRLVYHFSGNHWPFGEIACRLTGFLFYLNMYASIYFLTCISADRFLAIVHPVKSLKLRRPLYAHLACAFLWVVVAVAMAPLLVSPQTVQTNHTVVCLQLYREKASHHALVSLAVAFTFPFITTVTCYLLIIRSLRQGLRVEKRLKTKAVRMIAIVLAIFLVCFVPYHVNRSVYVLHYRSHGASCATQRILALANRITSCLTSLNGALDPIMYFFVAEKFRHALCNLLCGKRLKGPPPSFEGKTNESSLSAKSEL

Biological target: C1q protein purified from pooled normal human plasma (human) (UniProt P02745+P02746+P02747)
Assay: co-IP; C666-1 cells treated with 1 ug/mL C1q for 4 h; membrane protein extract incubated with 1 ug antibody at 4 °C overnight, then protein A/G agarose for 2 h at 4 °C; SDS-PAGE and western blot; only the target purified

**Q.** “GPR17, a member of the G protein-coupled receptor (GPCR) family (from UniProt Q13304 1-367)” was tested. Which binding did it give?
**A.** The binding was “binds”.
